# Measurements as given in patent publication US9156809B2, “Carboxy ester ketals, methods of manufacture, and uses thereof” (SEGETIS, INC., priority 2012, dated 2015).
# Some of these results come from one statement about several compounds together. At least one structure is not confirmed: it was looked up by name or label, or the drawing left a doubt.
# Test: Relative VOC content / volatility by TGA emulating ASTM D2369
# Conditions: 110° C., nitrogen purge
# Procedure: Here, 15 milligrams (mg) of each coalescent solvent was maintained at 110° C. for one hour with a nitrogen purge in a thermogravimetric analyzer (TGA).
row,SMILES,time to completely volatilize
1,"CC(C)OC(=O)CCC1(C)OCC(C)O1 (centres unmarked) [iPrLPK, isopropyl levulinate propylene glycol ketal]",less than 30 minutes
2,"CCOC(=O)CCC1(C)OCC(C)O1 (centres unmarked) [EtLPK, ethyl levulinate propylene glycol ketal]",less than 30 minutes
